Reference: paper PMC7819943, “Rice protein-binding microarrays: a tool to detect cis-acting elements near promoter regions in rice”
Some of the results follow.

Sequences of proteins named here, by UniProt entry; tags and fusion partners are left off.
UniProt Q0JBA9, entry or part of it: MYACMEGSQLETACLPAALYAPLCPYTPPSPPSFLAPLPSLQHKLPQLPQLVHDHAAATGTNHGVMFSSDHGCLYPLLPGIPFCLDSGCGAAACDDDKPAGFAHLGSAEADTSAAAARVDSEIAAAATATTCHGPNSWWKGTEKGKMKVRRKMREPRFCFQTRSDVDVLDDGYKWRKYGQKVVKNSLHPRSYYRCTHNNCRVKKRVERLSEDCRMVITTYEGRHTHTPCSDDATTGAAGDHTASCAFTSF

The sequences below were run against OsWRKY34 (Oryza sativa, UniProt Q0JBA9 1-250) (assay: protein-binding microarray (RPBM); PBS, 2% BSA, 51.3 ng/ul salmon testes DNA, 50 uM zinc acetate, 200 nM TF, 25 C, 1 h; high values mean tight binding). Settings: protein: recombinant; tags: N-terminal polyhistidine and DsRed monomer fusion (pET32a); label: CyDye5-dUTP incorporated in the synthesized complementary strand; 3' TTTTT single-stranded linker to array surface; dsDNA, one strand shown.
Outline: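 An Axon 4000B scanner gave the binding signal as per-feature fluorescence intensity in arbitrary units. This followed washing of a custom Agilent array that had been incubated for 1 h at 25 °C with 200 nM protein in PBS, 2% BSA, salmon testes DNA and 50 µM zinc acetate. The proteins were transcription factors fused at the N-terminus to polyhistidine and DsRed, expressed in E. coli BL21-CodonPlus and purified on Ni–NTA.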
In the case of “GCCGCCGCCGCCCTCGCCGTTGATTCCGCCGCCCGCCGCGCGGAGTCACCTAGTGCAG”, the binding signal is reported as 9900 fluorescence intensity (a.u.).
With “AACACCAATCACCACGTACGCCGACCAACCCCATCCACCCCGGAGTCACCTAGTGCAG” the binding signal was 8660 fluorescence intensity (a.u.).
“CGTTGTACTAACATATGTCGCATACAGTTCTGATTTGTTTCGGAGTCACCTAGTGCAG” was tested, and the binding signal was 10100 fluorescence intensity (a.u.).
With “TGATATGGTGGGTTTGGACTTGTAGATGGGCATATGTACGCGGAGTCACCTAGTGCAG” the binding signal was 8220 fluorescence intensity (a.u.).
In the case of “GCTATTGACATAGTTCATGCTGTCTCGTACTTACATGGATCGGAGTCACCTAGTGCAG”, the binding signal is reported as 9200 fluorescence intensity (a.u.).
For “ATCCATGCTAGCTTGCTCCGTATCTTTGACTTCACATTTACGGAGTCACCTAGTGCAG”, the binding signal was 9090 fluorescence intensity (a.u.).
“GTGAGCAGGTCAATAGTATGTGTGATTTAGTTTGACCAGGCGGAGTCACCTAGTGCAG” was tested, and the binding signal was 11500 fluorescence intensity (a.u.).
“CTTTACTTTGCAGCTATTTTGCTTCTGCTTCTTCTTGTTCCGGAGTCACCTAGTGCAG” was tested, and the binding signal was 9780 fluorescence intensity (a.u.).
“TTTATCAGTTTCATTCTGAATTTCTGACAAGACATGCTAACGGAGTCACCTAGTGCAG” was tested, and the binding signal was 8880 fluorescence intensity (a.u.).
For “TATATATGTTTTTTTAATAGAAGTTTTGCATACATTTTTTCGGAGTCACCTAGTGCAG”, the binding signal was 9720 fluorescence intensity (a.u.).
For “TTCCTGCATGTTTCGGTTGCTAGATTGTTTCCTTGGGCGGCGGAGTCACCTAGTGCAG”, the binding signal was 8480 fluorescence intensity (a.u.).
For “CCACACCTACCACACTTAAATTTGCCTTATCTATCTACTGCGGAGTCACCTAGTGCAG”, the binding signal was 8580 fluorescence intensity (a.u.).
With “GACCATTATGTTAACTTGGATTAGGGGTAGGCTAGAGATTCGGAGTCACCTAGTGCAG” the binding signal was 11000 fluorescence intensity (a.u.).
In the case of “AGCATTCTTTCTCCTTCGGTCCTTCCTCATACTCACCATTCGGAGTCACCTAGTGCAG”, the binding signal is reported as 9620 fluorescence intensity (a.u.).
In the case of “AGCAAGCGCTCTAGCTGTTGACTTTAGCCTCCGGCACATACGGAGTCACCTAGTGCAG”, the binding signal is reported as 9100 fluorescence intensity (a.u.).
In the case of “CATAGGTTTGCCGTCGGACGCTGCCAATTCCCAGCCTCTCCGGAGTCACCTAGTGCAG”, the binding signal is reported as 8350 fluorescence intensity (a.u.).
With “ACAGCATATTACTCCTACTACTACGTATACATAGACGCAACGGAGTCACCTAGTGCAG” the binding signal was 10400 fluorescence intensity (a.u.).
“GCGACGCCAACGACTACCCGCGCCGCCGCTACGTCTCCTACGGAGTCACCTAGTGCAG” was tested, and the binding signal was 9820 fluorescence intensity (a.u.).
In the case of “ATCATCGTTTTTGCTTGCGTCTCTTAATTAAATGCATCCACGGAGTCACCTAGTGCAG”, the binding signal is reported as 9120 fluorescence intensity (a.u.).
In the case of “ACTGACAGACAGGTAACCATACTCTGTTTTCCCCTGTTCTCGGAGTCACCTAGTGCAG”, the binding signal is reported as 8970 fluorescence intensity (a.u.).
For “GTGGGTTGAGATGATTGTTAGTAACAAAAGTTTAGTAAGACGGAGTCACCTAGTGCAG”, the binding signal was 9940 fluorescence intensity (a.u.).
For “TGGTTGGAGGGATGAGGTCTTATAAGTTAGTTCCACCCTTCGGAGTCACCTAGTGCAG”, the binding signal was 9520 fluorescence intensity (a.u.).
“ATCCCCATTGCTAGTATCTCTCTCTCGCTCTCTCTCCGCCCGGAGTCACCTAGTGCAG” was tested, and the binding signal was 9690 fluorescence intensity (a.u.).
In the case of “AATATTCAGTTGTCAGTTACTTGGTTTTCAAGCGAGCTACCGGAGTCACCTAGTGCAG”, the binding signal is reported as 8150 fluorescence intensity (a.u.).
In the case of “GCTCTGGGGTGAGTCTTTCTTTCAATTCCTCGCAACATAGCGGAGTCACCTAGTGCAG”, the binding signal is reported as 9380 fluorescence intensity (a.u.).
For “GATAGGTTGTGTGTGTGCAGTGTGTGTTTATAAGAGGTGACGGAGTCACCTAGTGCAG”, the binding signal was 10200 fluorescence intensity (a.u.).
“ACACTTCCGGCCATATATTTCAACAAATGCAATTCGTCAACGGAGTCACCTAGTGCAG” was tested, and the binding signal was 8520 fluorescence intensity (a.u.).
In the case of “TGATGAATTCCGCGAGTATTACCGTTTGTATTGTGTTTATCGGAGTCACCTAGTGCAG”, the binding signal is reported as 11400 fluorescence intensity (a.u.).
With “TCCAACTTTTTCCTTGCCTCACAATAGTCTGTGTGATAACCGGAGTCACCTAGTGCAG” the binding signal was 8760 fluorescence intensity (a.u.).
In the case of “ACCACCATTTTCCGATGATAACATCACACCACCATTTTACCGGAGTCACCTAGTGCAG”, the binding signal is reported as 11600 fluorescence intensity (a.u.).
With “TTAGCCCTTCATCTGCGTGGTGTGTACTGTGAAAAGGGCACGGAGTCACCTAGTGCAG” the binding signal was 8820 fluorescence intensity (a.u.).
“GCGTGTTCTTTTTGTTCCAGCCCCAGGATACGAAGGACTTCGGAGTCACCTAGTGCAG” was tested, and the binding signal was 8260 fluorescence intensity (a.u.).
With “GCCCGACTTACTATAACATTGATTGTTATGTCACTTGTCTCGGAGTCACCTAGTGCAG” the binding signal was 8670 fluorescence intensity (a.u.).
For “CCTTCATTTTTACTAACTTTTTTTTCTTGTCATGTAACAACGGAGTCACCTAGTGCAG”, the binding signal was 8960 fluorescence intensity (a.u.).
In the case of “ATAGGTGTTTCTTTCTATTCATTTGATCCTTATTATTAACCGGAGTCACCTAGTGCAG”, the binding signal is reported as 12600 fluorescence intensity (a.u.).
In the case of “TCCCCAATTCTCCCGTCCACCGGCCGCGGACCTCGCCGGACGGAGTCACCTAGTGCAG”, the binding signal is reported as 8140 fluorescence intensity (a.u.).
In the case of “CCCGATTCTTCTCACTACTGCCGACCAGTGTGGGCTACTACGGAGTCACCTAGTGCAG”, the binding signal is reported as 8150 fluorescence intensity (a.u.).
For “TATCCAATTTTGATTGTCCGTCTTATATGAAATTTTTTTACGGAGTCACCTAGTGCAG”, the binding signal was 9350 fluorescence intensity (a.u.).
With “TTCAAGGTCTGTTCAAGAACATAATTACAATTCTTCCATCCGGAGTCACCTAGTGCAG” the binding signal was 11700 fluorescence intensity (a.u.).
With “CTTGCCGTGTCCACCGCTGTGCCCATACCAATCCATAGTACGGAGTCACCTAGTGCAG” the binding signal was 10800 fluorescence intensity (a.u.).
“GTCACCTTTGTTCTAGTTTTTAGCATTTTTGTCGTTATGGCGGAGTCACCTAGTGCAG” was tested, and the binding signal was 11100 fluorescence intensity (a.u.).
For “GACATATATACACCGATCTGATCTGATCCAATCCTTGCTTCGGAGTCACCTAGTGCAG”, the binding signal was 8530 fluorescence intensity (a.u.).
“TCCTCCCGTGCCGACCATTTGGCGTCTCTCCCTTACTGCCCGGAGTCACCTAGTGCAG” was tested, and the binding signal was 12100 fluorescence intensity (a.u.).
For “AATTAACACCATTTCTCTACCTTGATGCGATCCTTTAAACCGGAGTCACCTAGTGCAG”, the binding signal was 9210 fluorescence intensity (a.u.).
In the case of “ACTCCACATTATGGCCGGCACATTTGTCATACTACCTACTCGGAGTCACCTAGTGCAG”, the binding signal is reported as 9760 fluorescence intensity (a.u.).
For “GTTTGATTTTTTTTGTCCCCGGTGATTTGATTCAAATTCACGGAGTCACCTAGTGCAG”, the binding signal was 10700 fluorescence intensity (a.u.).
In the case of “CGTCATGCTCGCCGGATCTGGCCGAGCCACCGCCGTTGTCCGGAGTCACCTAGTGCAG”, the binding signal is reported as 8230 fluorescence intensity (a.u.).
For “TATACTTGCGTTATTTCACTATCATGACCGCTGTTTCGCACGGAGTCACCTAGTGCAG”, the binding signal was 10200 fluorescence intensity (a.u.).
In the case of “GGTTTTCATCATCTGGTATCTCAATGTTATCATTAATTTACGGAGTCACCTAGTGCAG”, the binding signal is reported as 10600 fluorescence intensity (a.u.).
In the case of “AGCTCCATCCGCAACCGCAAATGACGCTTCCCAGCCGCGACGGAGTCACCTAGTGCAG”, the binding signal is reported as 8490 fluorescence intensity (a.u.).
For “TCCTTATCCTCTTCTCCTTTCTTCTTCTGCCTTGACCCTCCGGAGTCACCTAGTGCAG”, the binding signal was 11300 fluorescence intensity (a.u.).
“TTCACTCCAAACTACAACAATTCAATTCTGCCATTTGTTTCGGAGTCACCTAGTGCAG” was tested, and the binding signal was 8630 fluorescence intensity (a.u.).
“TCTTCGTTGCCCCTTGTTTTCACCATGTCACTGTTGAACACGGAGTCACCTAGTGCAG” was tested, and the binding signal was 8860 fluorescence intensity (a.u.).
For “ACCACGTAAAATATCCAAACTGCCGTGTCCATCGTTTTCCCGGAGTCACCTAGTGCAG”, the binding signal was 8330 fluorescence intensity (a.u.).
